# Experimental data published in the supplement of paper PMC9135407.
# Where “and” joins values, the source holds several entries; their conditions need not be identical. Equal entries are not always repeated. Structures can show the parent of a compound that is named as a salt. ± gives the standard deviation of the averaged measurements. The list shows a part of the results. Part of the spread comes from offsets between plates or batches.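 Primary human stellate myofibroblasts activated in culture; inactivation shown by regained lipid droplets. Readout: fraction of Hoechst-counted cells exceeding a per-plate Bodipy threshold, duplicate wells, each plate with DMSO negative and nortriptyline positive controls. Hits: control-normalized score beyond the plate's top-tenth-percentile nortriptyline wells, or among its three best wells. Final well concentrations unstated.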
# Tested on: primary human hepatic stellate cells (donor 1)
# Assay: percent Bodipy-positive cells; higher = more lipid droplet accumulation
# Conditions: 48 h
# [1] = library stock concentration: 10 mM
structure (smiles),measurement,setting,value
CN1CC[C@@H]2CN3CCc4cccc(c43)[C@@H]2C1 [SDZ SER 082 fumarate],percent Bodipy-positive cells,[1],9.9 ± 1.5%
"C[N+]1(C)[C@@H]2CC(OC(=O)[C@H](CO)c3ccccc3)C[C@H]1[C@@H]1O[C@@H]12 (single isomer, unassigned; (-)) [(-)-Scopolamine methyl nitrate]",percent Bodipy-positive cells,[1],15.8 ± 1.3%
NC(CCP(=O)(O)O)C(=O)O (stereo not drawn) [(?)-2-Amino-4-phosphonobutyric acid],percent Bodipy-positive cells,[1],50.1 ± 7.2%
CC(=O)O[C@H]1C(=O)[C@@]2(C)[C@H]([C@H](OC(=O)c3ccccc3)[C@]3(O)C[C@H](O)C(C)=C1C3(C)C)[C@]1(OC(C)=O)CO[C@@H]1C[C@@H]2O [Baccatin iii],percent Bodipy-positive cells,[1],34.6 ± 6%
CC(C)(O)[C@@H]1[C@H]2OC(=O)[C@@H]1[C@]1(O)C[C@H]3O[C@]34C(=O)O[C@H]2[C@]14C [Picrotin],percent Bodipy-positive cells,[1],47.9 ± 3.6%
O=C(O)/C=C\C(=O)O.O=C1/C(=C/c2ccccc2)C[C@@]2(O)C3Cc4ccc(O)c5c4[C@@]2(CCN3CC2CC2)[C@H]1O5 [BNTX maleate],percent Bodipy-positive cells,[1],95 ± 5%
c1cncc([C@@H]2CCCCN2)c1 [Anabasine],percent Bodipy-positive cells,,7.79 ± 3.2%
NC(Cc1cc(O)c(O)cc1O)C(=O)O (racemic) [6-Hydroxy-DL-DOPA],percent Bodipy-positive cells,[1],47.8 ± 28%
COc1cc(C(O)CN)ccc1O (stereo not drawn),percent Bodipy-positive cells,[1],35.2 ± 5.8%
CCCCC/C=C\C/C=C\C/C=C\C/C=C\CCCC(=O)OCCN [O-Arachidonoyl Ethanolamine (hydrochloride)],percent Bodipy-positive cells,library stock concentration: 1 mM,14.3 ± 2.3%
O=c1[nH]oc2c1CCNC2 [THIP hydrochloride],percent Bodipy-positive cells,[1],26.8% and 12.9%
O=c1[nH]oc2c1CCNC2 [THIP Hydrochloride],percent Bodipy-positive cells,,8.95 ± 3.5%
C[C@H](N)C(=O)N[C@@H](C)C(=O)N[C@@H](Cc1ccccc1)C(=O)CCl,percent Bodipy-positive cells,library stock concentration: 14.7 mM,93.4 ± 2.9%
CC[C@@]1([C@H]2O[C@H]([C@H]3O[C@@](O)(CO)[C@H](C)C[C@@H]3C)C[C@H]2C)CC[C@H]([C@@]2(C)CC[C@]3(C[C@H](O)[C@@H](C)[C@@H]([C@H](C)[C@H](OC)[C@@H](C)C(=O)O)O3)O2)O1 [Monensin sodium],percent Bodipy-positive cells,library stock concentration: 7.2 mM,57.5 ± 2.2%
COc1cc2c(c(OC)c1OC)-c1ccc(OC)c(=O)cc1[C@@H](NC(C)=O)CC2 [Colchicine],percent Bodipy-positive cells,,69.2 ± 3.6%
same,percent Bodipy-positive cells,library stock concentration: 5 mM,11.2 ± 1.4%
CC(C)C1CNC(C(=O)O)C1CC(=O)O (stereo not drawn) [Dihydrokainic acid],percent Bodipy-positive cells,[1],33 ± 2.6%
N#C[C@H](O[C@@H]1O[C@H](CO[C@@H]2O[C@H](CO)[C@@H](O)[C@H](O)[C@H]2O)[C@@H](O)[C@H](O)[C@H]1O)c1ccccc1 [Amygdalin],percent Bodipy-positive cells,[1],36.1 ± 2.8%
CC[C@@H](CO)NC(=O)[C@@H]1C=C2c3cccc4c3c(cn4C)C[C@H]2N(C)C1 [Methysergide],percent Bodipy-positive cells,library stock concentration: 5.7 mM,6.59 ± 1.8%
"CC(=O)N1CC[N+](C)(C)CC1 [4-Acetyl-1,1-dimethylpiperazinium iodide]",percent Bodipy-positive cells,[1],5.96 ± 0.94%
C[C@]12CC[C@H](O)CC1=CC[C@@H]1[C@@H]2CC[C@]2(C)C(=O)CC[C@@H]12 [Dehydroepiandrosterone],percent Bodipy-positive cells,library stock concentration: 6.9 mM,9.56 ± 0.47%
C[C@]12CC[C@H](O)CC1=CC[C@@H]1[C@@H]2CC[C@]2(C)C(=O)CC[C@@H]12 [Dehydroepiandrosterone (DHEA)],percent Bodipy-positive cells,library stock concentration: 3.33 mM,27.7 ± 17%
same,percent Bodipy-positive cells,[1],11.9 ± 1.7%
Cc1cc([C@@H]2CCCN2C)on1 [ABT-418 hydrochloride],percent Bodipy-positive cells,[1],44.3 ± 11%
CN1C(=O)CN=C(c2ccccc2)c2cc(Cl)ccc21 [Diazepam],percent Bodipy-positive cells,[1],14.1 ± 3.6%
"COc1ccc2c(c1OC)CN1CCc3cc4c(cc3C1C2)OCO4 (stereo not drawn) [(d,l)-Tetrahydroberberine]",percent Bodipy-positive cells,,10 ± 2.8%
Cl.Oc1ccc2c3c1O[C@H]1c4[nH]c5ccccc5c4C[C@@]4(O)C(C2)N(CC2CC2)CCC314 (stereo partly drawn) [Naltrindole hydrochloride],percent Bodipy-positive cells,[1],95.4 ± 1.9%
CC1C=CC=CCCC=CC=CC=CC=CC(OC2OC(C)C(O)C(N)C2O)CC2OC(O)(CC(O)C(O)CCC(O)CC(O)CC(O)CC(=O)OC(C)C(C)C1O)CC(O)C2C(=O)O (stereo not drawn) [Nystatin],percent Bodipy-positive cells,[1],16.1 ± 2.5%
O=c1[nH]c2ccccc2n1C1CCN(CCCC(c2ccc(F)cc2)c2ccc(F)cc2)CC1 [Pimozide],percent Bodipy-positive cells,[1],99.08 ± 0.71%
"CC(N)C(O)c1ccc(O)c(O)c1 (single isomer, unassigned; (-)) [(-)-alpha-Methylnorepinephrine]",percent Bodipy-positive cells,[1],22.8 ± 7.2%
C[C@H]1O[C@@H](O[C@H]2CC[C@]3(C=O)[C@H]4CC[C@]5(C)[C@@H](C6=CC(=O)OC6)CC[C@]5(O)[C@@H]4CC[C@]3(O)C2)C[C@H](O)[C@@H]1O [Helveticoside],percent Bodipy-positive cells,,69.1 ± 23%
COC1(C[S@+]([O-])c2ccccc2)CCN(CCc2c[nH]c3ccc(F)cc23)CC1,percent Bodipy-positive cells,[1],39.011 ± 0.0064%
CC[N+]1(C)CCCC(OC(=O)C(O)(c2ccccc2)c2ccccc2)C1 (stereo not drawn) [Pipenzolate bromide],percent Bodipy-positive cells,,8.72 ± 3.6%
same,percent Bodipy-positive cells,[1],38 ± 8.5%
C/C=C(/C)C(=O)O[C@H]1C(C)=C2[C@H]([C@@H]1OC(=O)CCCCCCC)[C@@](C)(OC(C)=O)C[C@H](OC(=O)CCC)[C@@]1(O)[C@H]2OC(=O)[C@@]1(C)O [Thapsigargin],percent Bodipy-positive cells,library stock concentration: 7.7 mM,89.2 ± 5.5%
same,percent Bodipy-positive cells,[1],88.1 ± 17%
Cc1nnc2n1-c1sc(CCC(=O)N3CCOCC3)cc1C(c1ccccc1Cl)=NC2,percent Bodipy-positive cells,[1],6.86 ± 1.8%
C[C@@H]1O[C@@H](O[C@H]2C[C@@H](O)[C@]3(CO)[C@H]4[C@H](O)C[C@]5(C)[C@@H](C6=CC(=O)OC6)CC[C@]5(O)[C@@H]4CC[C@]3(O)C2)[C@H](O)[C@H](O)[C@H]1O.O.O.O.O.O.O.O.O [Strophantine octahydrate],percent Bodipy-positive cells,,92 ± 0.37%
"C[C@]12CC[C@@H](O)C[C@@H]1CC[C@@H]1[C@@H]2CC[C@]2(C)[C@@H](C(=O)CO)CC[C@@H]12 [3-alpha,21-Dihydroxy-5-alpha-pregnan-20-one]",percent Bodipy-positive cells,[1],25.6 ± 7.6%
CC1=C2C(=CO[C@H](C)[C@H]2C)C(O)=C(C(=O)O)C1=O [Citrinin],percent Bodipy-positive cells,[1],34.1 ± 6.4%
CCC[C@@H]1CC2=CC(=O)CC[C@]2(C)[C@H]2CC[C@@]3(C)[C@@H](CC[C@@]3(O)CCC(=O)O)[C@H]12,percent Bodipy-positive cells,[1],5.44 ± 0.77%
C=C1C/C(=C/C)C(=O)O[C@@H]2CCN3CC=C(COC(=O)[C@]1(C)O)[C@H]23 [Seneciphylline],percent Bodipy-positive cells,,29.3 ± 2.6%
c1ccc2c(c1)OCC(C1=NCCN1)O2 (stereo not drawn) [Idazoxan hydrochloride],percent Bodipy-positive cells,,15.8 ± 1.6%

# Some of the entries so far, tab-delimited:
structure (smiles)	measurement	setting	value
Cc1nnc2n1-c1sc(CCC(=O)N3CCOCC3)cc1C(c1ccccc1Cl)=NC2	percent Bodipy-positive cells	[1]	6.86 ± 1.8%
C[C@@H]1O[C@@H](O[C@H]2C[C@@H](O)[C@]3(CO)[C@H]4[C@H](O)C[C@]5(C)[C@@H](C6=CC(=O)OC6)CC[C@]5(O)[C@@H]4CC[C@]3(O)C2)[C@H](O)[C@H](O)[C@H]1O.O.O.O.O.O.O.O.O [Strophantine octahydrate]	percent Bodipy-positive cells		92 ± 0.37%
C[C@]12CC[C@@H](O)C[C@@H]1CC[C@@H]1[C@@H]2CC[C@]2(C)[C@@H](C(=O)CO)CC[C@@H]12 [3-alpha,21-Dihydroxy-5-alpha-pregnan-20-one]	percent Bodipy-positive cells	[1]	25.6 ± 7.6%
